A short description of this experiment: qHTS Assay for Lipid Storage Modulators in Drosophila S3 Cells.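 As to cell number change: cells counted by Cell Tracker Red CMTPX staining in the red channel.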 To be noted: BODIPY lipid droplet fluorescence, 18-24 h; for cell number change: measured here: cell count max response, cells fed with added oleic acid. The gist of the method:
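Drosophila S3 cells loaded with oleic acid (400 uM, as added) and compounds at several concentrations; lipid droplets imaged by 488-nm laser-scanning cytometry, 500–530 nm intensity and object ratio to cell channel. Percent activity normalized to 20 uM Triacsin C.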
Background: Quantitative high-throughput screening tests each substance at several concentrations.

Setting [1] is: measured here: lipid fluorescence (Fed channel) AC50, cells fed with added oleic acid.
Setting [2] is: measured here: cell number channel AC50, cells fed with added oleic acid.

The list shows a part of the results. These are further read-outs of the screen, such as a control signal, another cell line or another target. No call is given for them. The list favours compounds with an active or inconclusive main result. The note in brackets gives the kind of curve behind each potency; many fits are weak.

The term AC50 denotes the midpoint of the concentration-response curve, whichever way the signal moves. Lower therefore signals activity at low concentration.

Regarding `CC(NC(=O)CCN1C(=O)c2ccccc2S1(=O)=O)c1ccccc1` (stereo not drawn), the cell number change is 13.3%.
For `CN(C)c1ccc(/C=C(\C#N)c2ccccn2)cc1`, under setting [1], the concentration at half-maximal activity (AC50) is 14.6 µM [falling, partial curve, poor fit].
In the case of `CCC1CCCCN1C(=O)Cn1c(C(=O)OC)cc2ccsc21` (stereo not drawn), the cell number change was -29.6%. For the same compound, under setting [1], the half-maximal activity concentration (AC50) is 16.4 µM [falling, single point].
As to `O=C(NCc1ccco1)/C(=C\c1ccc(F)cc1)NC(=O)c1ccco1`, the cell number change is 1.26%. The concentration at half-maximal activity (AC50) under setting [1] is 5.17 µM [rising, partial curve].
On to `CC(=O)NCc1cccc(CNC(C)=O)n1`, for which the cell number change is -7.93%. Also, the half-maximal activity concentration (AC50) under setting [1] is 25.9 µM [falling, partial curve].
Take `Cc1ccccc1-c1nc(CS(=O)(=O)CC(=O)N2CCc3ccccc3C2)c(C)o1`: the cell number change came to 10.4%. Besides, the AC50 under setting [2] was 2.59 µM [rising, single point].
For the compound `COC(=O)c1[nH]c2ccccc2c1NC(=O)Oc1ccccc1`, the cell number change was -16.6%. The AC50 under setting [1] was 1.16 µM [falling, full curve, poor fit].
In the case of `CCCCC(=O)NC(c1ccccc1Cl)c1ccc2cccnc2c1O` (stereo not drawn), the cell number change is -24%. For the same compound, the AC50 under setting [1] was 23.1 µM [falling, single point].
For the compound `Cc1nc(-c2cccc(Br)c2)ccc1C(=O)O`, the cell number change is -23.3%.
Regarding `Cc1ccn2c(C(=O)CSc3ccc(Cl)cc3Cl)c(C)nc2c1`, the cell number change turned out to be 19.7%. Besides, under setting [1], the half-maximal activity concentration (AC50) is 0.164 µM [rising, full curve, poor fit].
As to `CCN(CC)c1ccc(/C=C2\C(=N)N3N=C(CC(=O)N4CCOCC4)SC3=NC2=O)cc1`, the cell number change is -13.9%. For the same compound, under setting [1], the AC50 is 23.1 µM [falling, single point].
On to `COc1ccc(CCn2c(N)cc(=O)[nH]c2=O)cc1OC`, for which the cell number change was -5.1%.
Take `Cc1cc(C)cc(NC(=O)C(C)N2C(=O)c3ccccc3C2=O)c1` (stereo not drawn): the cell number change was -24.9%. The concentration at half-maximal activity (AC50) under setting [1] was 4.11 µM [falling, single point].
With `O=[N+]([O-])c1ccc(OCC2CC(c3ccccc3)=NO2)cc1` (stereo not drawn), the cell number change turned out to be 31.6%. Besides, the AC50 under setting [2] is 13 µM [rising, single point].
In the case of `COc1ccc(S(=O)(=O)N2CCCc3ccccc32)cc1OC`, the cell number change is -4.6%. Besides, the concentration at half-maximal activity (AC50) under setting [1] is 1.46 µM [falling, full curve, poor fit].
`C=CCNC(=O)c1ccc(NC(=O)CC2SC(N3CCCC3)=NC2=O)cc1` (stereo not drawn): the cell number change was -1.81%.
For the compound `Cc1cc2c(c(=O)n1CCN(C)C)C(c1ccc(Br)cc1)C(C#N)=C(N)O2` (stereo not drawn), the cell number change was determined as 16.7%.
Consider `Cc1ccc(C)c(N/N=C2\CCCNC2=O)c1`, for which, under setting [2], the AC50 is 0.731 µM [rising, single point].
`CCOC(=O)N1CCN(C(=O)Cn2c(C)cc3ccccc3c2=O)CC1`: the cell number change was -10.4%.
For the compound `O=C(c1ccc(Cn2c(=O)[nH]c3ccccc3c2=O)cc1)N1CCN(c2ccccc2)CC1`, the cell number change was -30.4%. Under setting [2], the half-maximal activity concentration (AC50) is 18.4 µM [falling, partial curve]. Also, the half-maximal activity concentration (AC50) under setting [1] was 29.1 µM [falling, partial curve, poor fit].

These data come from PubChem BioAssay AID2685 (National Center for Advancing Translational Sciences (NCATS), 2010).
